# The supplement of paper PMC4683952
# Counter-ions that a name gives are not always drawn. The list shows a part of the results. Rule as the data show it: active = 2.5 or more and inactive = the rest. Repeats in this data set agree poorly, so a single value says little.
# System: Lgr5 (MarsCy1-Lgr5-EGFP, U2OS)
# Test: cell-surface Lgr5 expression (SCi1 fluorescence, background-subtracted) relative to WT control (fold of WT control); higher = more Lgr5 at the plasma membrane
# Conditions: U2OS MarsCy1-Lgr5-EGFP stable; treatment time: overnight; library: Prestwick; 20 µM
row,Compound,cell-surface Lgr5 expression
1,C[C@H]1O[C@@H](O[C@H]2[C@@H](O)C[C@H](O[C@H]3[C@@H](O)C[C@H](O[C@H]4CC[C@@]5(C)[C@H](CC[C@@H]6[C@@H]5C[C@@H](O)[C@]5(C)[C@@H](C7=CC(=O)OC7)CC[C@]65O)C4)O[C@@H]3C)O[C@@H]2C)C[C@H](O)[C@@H]1O [Digoxin],inactive: 1
2,COc1cc([S+](C)[O-])ccc1-c1nc2cccnc2[nH]1 (centres undefined) [Sulmazole],inactive: 1.92
3,CCCCc1cc2ccccc2c(OCCN(C)C)n1 [Dimethisoquin hydrochloride],inactive: 1.13
4,Cc1cccc(C)c1NC(=O)C(C)N (centres undefined) [Tocainide hydrochloride],inactive: 1.27
5,CN(C)C(=O)C(CCN1CCC(O)(c2ccc(Cl)cc2)CC1)(c1ccccc1)c1ccccc1 [Loperamide hydrochloride],inactive: 0.948
6,CN[C@@H]1[C@@H](O[C@H]2O[C@H](CO)[C@@H](N)[C@H](O)[C@H]2O)OC2C[C@@H](N)[C@@H](O[C@H]3[C@H](O)[C@@H](O)[C@H](N)C[C@@H]3N)OC2[C@@H]1O (some centres undefined) [Apramycin],inactive: 1.23
7,Cc1c(-c2ccccc2)oc2c(C(=O)OCCN3CCCCC3)cccc2c1=O [Flavoxate hydrochloride],inactive: 1.31
8,NS(=O)(=O)c1cc2c(cc1Cl)NC(C(Cl)Cl)NS2(=O)=O (centres undefined) [Trichlormethiazide],inactive: 1.89
9,CN[C@@H]1[C@H](O)[C@H](NC)[C@H]2O[C@@]3(O)C(=O)C[C@@H](C)O[C@H]3O[C@@H]2[C@H]1O [Spectinomycin dihydrochloride],inactive: 2.15
10,Cc1onc(-c2ccccc2Cl)c1C(=O)N[C@@H]1C(=O)N2[C@@H]1SC(C)(C)[C@@H]2C(=O)O [Cloxacillin sodium salt],inactive: 1.46
11,N[C@@H](C(=O)N[C@@H]1C(=O)N2C(C(=O)O)=C(Cl)CC[C@H]12)c1ccccc1 [Loracarbef],inactive: 1.41
12,CN(C)CCC=C1c2ccccc2COc2ccccc21 [Doxepin hydrochloride],inactive: 1.17
13,CC(C)[N+](C)(CCOC(=O)C1c2ccccc2Oc2ccccc21)C(C)C [Propantheline bromide],inactive: 0.324
14,Nc1ccccc1S(N)(=O)=O [2-Aminobenzenesulfonamide],inactive: 2.32
15,CCN(CC)CCNC(=O)c1cc(Cl)c(N)cc1OC [Metoclopramide monohydrochloride],inactive: 1.51
16,CCOc1ccc2ccccc2c1C(=O)N[C@@H]1C(=O)N2[C@@H]1SC(C)(C)[C@@H]2C(=O)O [Nafcillin sodium salt monohydrate],inactive: 2.24
17,CN(C)C/C=C(/c1ccc(Br)cc1)c1cccnc1 [Zimelidine dihydrochloride monohydrate],inactive: 1.45
18,CC(C)(CO)C(O)C(=O)NCCCO (centres undefined) [Panthenol (D)],inactive: 1.25
19,Cn1cnc2c1c(=O)[nH]c(=O)n2C [Theobromine],inactive: 1.88
20,CCC[C@@H]1C[C@@H](C(=O)N[C@@H]([C@H]2O[C@H](SC)[C@H](O)[C@@H](O)[C@H]2O)[C@H](C)Cl)N(C)C1 [Clindamycin hydrochloride],inactive: 1.13
21,O=C(N[C@H](CO)[C@H](O)c1ccc([N+](=O)[O-])cc1)C(Cl)Cl [Chloramphenicol],inactive: 1.68
22,Cc1ccc2c(c1)c1c3n2CCNC3CCC1 (centres undefined) [Pirlindole mesylate],inactive: 1.72

row,Compound,cell-surface Lgr5 expression
1,COc1cc(C(=O)NCc2ccc(OCCN(C)C)cc2)cc(OC)c1OC [Trimethobenzamide hydrochloride],inactive: 1.42
2,C1CCC(C(CC2CCCCN2)C2CCCCC2)CC1 (centres undefined) [Perhexiline maleate],inactive: 1.78
3,CC(C)NCC(O)COc1ccc(CCOCC2CC2)cc1 (centres undefined) [Betaxolol hydrochloride],inactive: 0.926
4,CCc1nc(N)nc(N)c1-c1ccc(Cl)cc1 [Pyrimethamine],inactive: 0.955
5,CC(=O)[C@@]1(O)CC[C@H]2[C@@H]3C[C@H](C)C4=CC(=O)C=C[C@]4(C)[C@@]3(F)[C@@H](O)C[C@@]21C [Fluorometholone],active: 3.04
6,O=C(O)c1cn(C2CC2)c2cc(N3CCNCC3)c(F)cc2c1=O [Ciprofloxacin hydrochloride],inactive: 1.43
7,C1COC(NC(C2CC2)C2CC2)=N1 [Rilmenidine hemifumarate],inactive: 1.05
8,C[C@H]1c2cccc(O)c2C(=O)C2=C(O)[C@]3(O)C(=O)C(C(N)=O)=C(O)[C@@H](N(C)C)[C@@H]3[C@@H](O)[C@@H]21 [Doxycycline hydrochloride],inactive: 0.993
9,CCCC1C(=O)N2C(N(C)C)=Nc3ccc(C)cc3N2C1=O (centres undefined) [Azapropazone],inactive: 1.07
10,"C[C@](N)(Cc1ccc(O)c(O)c1)C(=O)O [Methyldopa (L,-)]",inactive: 1.42
11,c1cnc(N2CCN(Cc3ccc4c(c3)OCO4)CC2)nc1 [Piribedil hydrochloride],inactive: 0.68
12,CCc1c(C)[nH]c2c1C(=O)C(CN1CCOCC1)CC2 (centres undefined) [Molindone hydrochloride],inactive: 1.43
13,CCC1(c2ccccc2)NC(=O)N(C)C1=O (centres undefined) [Mephenytoin],inactive: 1.27
14,Cc1ncc(CO)c(CO)c1O [Pyridoxine hydrochloride],inactive: 2.02
15,N=C(N)NS(=O)(=O)c1ccc(N)cc1 [Sulfaguanidine],inactive: 1.54
16,CC1=C(/C=C/C(C)=C/C=C/C(C)=C/C(=O)O)C(C)(C)CCC1 [Retinoic acid],inactive: 1.43
17,NC(=O)c1cc[n+](CC2=C(C(=O)[O-])N3C(=O)[C@@H](NC(=O)[C@@H](c4ccccc4)S(=O)(=O)O)[C@H]3SC2)cc1 [Cefsulodin sodium salt],inactive: 2.06
18,Clc1ccc(Cn2c(CN3CCCC3)nc3ccccc32)cc1 [Clemizole hydrochloride],inactive: 1.19
19,COc1cc2nc(N(C)CCCNC(=O)C3CCCO3)nc(N)c2cc1OC (centres undefined) [Alfuzosin hydrochloride],inactive: 1.72
20,O=C(O)/C=C/c1ccc(O)c(O)c1 [Caffeic acid],inactive: 2.34
21,CC(=O)O[C@]1(C(C)=O)CC[C@H]2[C@@H]3C=C(Cl)C4=CC(=O)[C@@H]5C[C@@H]5[C@]4(C)[C@H]3CC[C@@]21C [Cyproterone acetate],inactive: 0.948
22,O=C(O)COCCN1CCN(C(c2ccccc2)c2ccc(Cl)cc2)CC1 (centres undefined) [Cetirizine dihydrochloride],active: 3.85

# Part of the list above, reformatted:
row	Compound	cell-surface Lgr5 expression
2	C1CCC(C(CC2CCCCN2)C2CCCCC2)CC1 (centres undefined) [Perhexiline maleate]	inactive: 1.78
3	CC(C)NCC(O)COc1ccc(CCOCC2CC2)cc1 (centres undefined) [Betaxolol hydrochloride]	inactive: 0.926

# Continuation.

row,Compound,cell-surface Lgr5 expression
1,N[C@@H]1CONC1=O [D-cycloserine],inactive: 1.43
2,CN1C(=O)CC(c2ccccc2)C1=O (centres undefined) [Phensuximide],inactive: 1.25
3,Clc1ccc(CSC(Cn2ccnc2)c2ccc(Cl)cc2Cl)cc1 (centres undefined) [Sulconazole nitrate],inactive: 1.62
4,C[n+]1cc2c3c(ccc2c2ccc4cc5c(cc4c21)OCO5)OCO3 [Sanguinarine],inactive: 0.361
5,N=C(N)NC(=O)Cc1c(Cl)cccc1Cl [Guanfacine hydrochloride],inactive: 1.55
6,CN(C)CCOC(c1ccccc1)c1ccccc1 [Diphenhydramine hydrochloride],inactive: 1.63
7,CC(=O)[C@H]1CC[C@H]2[C@@H]3CCC4=CC(=O)CC[C@]4(C)[C@H]3CC[C@]12C [Progesterone],inactive: 0.963
8,NC(Cc1cc(I)c(Oc2cc(I)c(O)c(I)c2)c(I)c1)C(=O)O (centres undefined) [Thyroxine (L)],inactive: 1.32
9,CN(C)CC/C=C1/c2ccccc2Sc2ccc(Cl)cc21 [Chlorprothixene hydrochloride],inactive: 2.11
10,C[C@]12CC[C@@H]3c4ccc(O)cc4CC[C@H]3[C@@H]1CC[C@@H]2O [Estradiol-17 beta],inactive: 1.45
11,CCCN(CCC)S(=O)(=O)c1ccc(C(=O)O)cc1 [Probenecid],active: 2.99
12,COc1ccc(CCN(C)CCCC(C#N)(c2ccc(OC)c(OC)c2)C(C)C)cc1OC (centres undefined) [Verapamyl hydrochloride],inactive: 0.822
13,CCCc1cc(=O)[nH]c(=S)[nH]1 [Propylthiouracil],inactive: 2.11
14,C[N+]1(CCCCC[N+]2(C)CCCC2)CCCC1 [Pentolinium bitartrate],active: 2.53
15,CCCCCCC[N+](CC)(CC)CCCCc1ccc(Cl)cc1 [Clofilium tosylate],inactive: 0.859
16,CNCCCC1c2ccccc2C=Cc2ccccc21 [Protriptyline hydrochloride],inactive: 1.59
17,C[C@]12CCC(=O)C=C1CC[C@@H]1[C@@H]2[C@@H](O)C[C@@]2(C)[C@H]1CC[C@]2(O)C(=O)CO [Hydrocortisone base],inactive: 1.53
18,COc1cccc2c1C(=O)c1c(O)c3c(c(O)c1C2=O)C[C@@](O)(C(=O)CO)C[C@@H]3O[C@H]1C[C@H](N)[C@H](O)[C@H](C)O1 [Doxorubicin hydrochloride],inactive: 0.101
19,CC1(C)S[C@@H]2[C@H](NC(=O)[C@H](N)c3ccc(O)cc3)C(=O)N2[C@H]1C(=O)O [Amoxicillin],inactive: 1.59
20,CN[C@@H]1[C@H](O[C@H]2[C@H](O[C@H]3[C@H](O)[C@@H](O)[C@H](N=C(N)N)[C@@H](O)[C@@H]3N=C(N)N)O[C@@H](C)[C@]2(O)C=O)O[C@@H](CO)[C@H](O)[C@H]1O [Streptomycin sulfate],inactive: 1.98

# Arranged by formula weight (falling): part of the list above.
row,Compound,cell-surface Lgr5 expression
20,CN[C@@H]1[C@H](O[C@H]2[C@H](O[C@H]3[C@H](O)[C@@H](O)[C@H](N=C(N)N)[C@@H](O)[C@@H]3N=C(N)N)O[C@@H](C)[C@]2(O)C=O)O[C@@H](CO)[C@H](O)[C@H]1O [Streptomycin sulfate],inactive: 1.98
3,Clc1ccc(CSC(Cn2ccnc2)c2ccc(Cl)cc2Cl)cc1 (centres undefined) [Sulconazole nitrate],inactive: 1.62
16,CNCCCC1c2ccccc2C=Cc2ccccc21 [Protriptyline hydrochloride],inactive: 1.59
